Measured values: patent US9555086B2 (The Regents of the University of Michigan, priority 2010, dated 2017)

Experiment: general procedure: Fmoc solid-phase peptide synthesis; Rink amide MBHA resin; HBTU/DIPEA; HATU/DIPEA
Settings: whole synthesis

With “H-W[Nlys]QKR[Nlys]A-NH2 (linker 2-6 via CO; SMILES C[C@H](NC(=O)CN1CCCCNC(=O)NCCCCN(C(=O)[C@@H](N)Cc2c[nH]c3ccccc23)CC(=O)N[C@@H](CCC(N)=O)C(=O)N[C@@H](CCCCN)C(=O)N[C@@H](CCCNC(=N)N)C1=O)C(N)=O)” the “final HPLC purity” value was over 95%.

Numbered stars: 1 amine (or outer) side, 2 acyl side, 3 side chain; on linkers, the order of the positions; unused ones are H or OH. Bridge positions count the residues as written; N and C are the ends. Square brackets hold non-standard residues; d marks the D form. CO = O=C([*:1])[*:2]; Nlys = NCCCCNCC(=O)O
